This is one part of the list.
What was measured:
Assay in all cases: glycan array binding signal (z-score within array); higher = stronger binding
Settings in all cases: glycan notation: IUPAC condensed, linker removed
Fuc(a1-2)Gal = target: Fuc(a1-2)Gal
Outline: (§1)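 The binding signal is a Z-score computed within each array and averaged over linkers. Arrays of the same protein sequence at different concentrations or buffers were also averaged together. Data originate from 3228 arrays in the Consortium for Functional Glycomics database, kept only where the protein sequence was available.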

Fuc(a1-2)Gal(b1-3)GalNAc = target: Fuc(a1-2)Gal(b1-3)GalNAc
Outline: as §1

[1] = target: Fuc(a1-2)Gal(b1-3)GalNAc(a1-3)[Fuc(a1-2)]Gal(b1-4)Glc
Outline: as §1

[2] = target: Fuc(a1-2)Gal(b1-3)GalNAc(a1-3)[Fuc(a1-2)]Gal(b1-4)GlcNAc
Outline: as §1

[3] = target: Fuc(a1-2)Gal(b1-3)GalNAc(b1-3)Gal
Outline: as §1

[4] = target: Fuc(a1-2)Gal(b1-3)GalNAc(b1-3)Gal(a1-4)Gal(b1-4)Glc
Outline: as §1

[5] = target: Fuc(a1-2)Gal(b1-3)GalNAc(b1-4)[Neu5Ac(a2-3)]Gal(b1-4)Glc
Outline: as §1

Fuc(a1-2)Gal(b1-3)GlcNAc = target: Fuc(a1-2)Gal(b1-3)GlcNAc
Outline: as §1

[6] = target: Fuc(a1-2)Gal(b1-3)GlcNAc(b1-2)Man(a1-3)[Fuc(a1-2)Gal(b1-3)GlcNAc(b1-2)Man(a1-6)]Man(b1-4)GlcNAc(b1-4)GlcNAc
Outline: as §1

[7] = target: Fuc(a1-2)Gal(b1-3)GlcNAc(b1-2)Man(a1-3)[Fuc(a1-2)Gal(b1-3)GlcNAc(b1-2)Man(a1-6)]Man(b1-4)GlcNAc(b1-4)[Fuc(a1-6)]GlcNAc
Outline: as §1

[8] = target: Fuc(a1-2)Gal(b1-3)GlcNAc(b1-3)Gal(b1-4)Glc
Outline: as §1

[9] = target: Fuc(a1-2)Gal(b1-3)GlcNAc(b1-3)GalNAc
Outline: as §1

[10] = target: Fuc(a1-2)Gal(b1-3)GlcNAc(b1-3)[Fuc(a1-2)Gal(b1-3)GlcNAc(b1-6)]GalNAc
Outline: as §1

[11] = target: Fuc(a1-2)Gal(b1-3)GlcNAc(b1-3)[Fuc(a1-3)[Gal(b1-4)]GlcNAc(b1-6)]Gal(b1-4)Glc
Outline: as §1

[12] = target: Fuc(a1-2)Gal(b1-3)GlcNAc(b1-3)[Gal(b1-4)GlcNAc(b1-6)]Gal(b1-4)Glc
Outline: as §1

[13] = target: Fuc(a1-2)Gal(b1-3)GlcNAc(b1-3)[Neu5Ac(a2-6)Gal(b1-4)GlcNAc(b1-6)]Gal(b1-4)Glc
Outline: as §1

[14] = target: Fuc(a1-2)Gal(b1-3)GlcNAc6S
Outline: as §1

[15] = target: Fuc(a1-2)Gal(b1-3)[Fuc(a1-4)]GlcNAc
Outline: as §1

[16] = target: Fuc(a1-2)Gal(b1-3)[Fuc(a1-4)]GlcNAc(b1-2)Man(a1-3)[Fuc(a1-2)Gal(b1-3)[Fuc(a1-4)]GlcNAc(b1-2)Man(a1-3)]Man(b1-4)GlcNAc(b1-4)GlcNAc
Outline: as §1

[17] = target: Fuc(a1-2)Gal(b1-3)[Fuc(a1-4)]GlcNAc(b1-2)Man(a1-3)[Fuc(a1-2)Gal(b1-3)[Fuc(a1-4)]GlcNAc(b1-2)Man(a1-6)]Man(b1-4)GlcNAc(b1-4)GlcNAc
Outline: as §1

[18] = target: Fuc(a1-2)Gal(b1-3)[Fuc(a1-4)]GlcNAc(b1-2)Man(a1-3)[Fuc(a1-2)Gal(b1-3)[Fuc(a1-4)]GlcNAc(b1-2)Man(a1-6)]Man(b1-4)GlcNAc(b1-4)[Fuc(a1-6)]GlcNAc(b1-4)[Fuc(a1-6)]GlcNAc
Outline: as §1

[19] = target: Fuc(a1-2)Gal(b1-3)[Fuc(a1-4)]GlcNAc(b1-2)Man(a1-6)[Fuc(a1-2)Gal(b1-3)[Fuc(a1-4)]GlcNAc(b1-2)Man(a1-3)]Man(b1-4)GlcNAc(b1-4)[Fuc(a1-6)]GlcNAc
Outline: as §1

[20] = target: Fuc(a1-2)Gal(b1-3)[Fuc(a1-4)]GlcNAc(b1-3)[Fuc(a1-3)[Gal(b1-4)]GlcNAc(b1-6)]Gal(b1-4)Glc
Outline: as §1

[21] = target: Fuc(a1-2)Gal(b1-3)[Fuc(a1-4)]GlcNAc(b1-3)[Gal(b1-4)GlcNAc(b1-6)]Gal(b1-4)Glc
Outline: as §1

[22] = target: Fuc(a1-2)Gal(b1-4)Fuc(a1-3)]GlcNAc(b1-2)Man(a1-3)[Fuc(a1-2)Gal(b1-4)[Fuc(a1-3)]GlcNAc(b1-2)Man(a1-6)]Man(b1-4)GlcNAc(b1-4)GlcNAc
Outline: as §1

Fuc(a1-2)Gal(b1-4)Glc = target: Fuc(a1-2)Gal(b1-4)Glc
Outline: as §1

Fuc(a1-2)Gal(b1-4)Glc6S = target: Fuc(a1-2)Gal(b1-4)Glc6S
Outline: as §1

Fuc(a1-2)Gal(b1-4)GlcNAc = target: Fuc(a1-2)Gal(b1-4)GlcNAc
Outline: as §1

[23] = target: Fuc(a1-2)Gal(b1-4)GlcNAc(b1-2)Man
Outline: as §1

[24] = target: Fuc(a1-2)Gal(b1-4)GlcNAc(b1-2)Man(a1-3)[Fuc(a1-2)Gal(b1-4)GlcNAc(b1-2)Man(a1-6)]Man(b1-4)GlcNAc(b1-4)GlcNAc
Outline: as §1

[25] = target: Fuc(a1-2)Gal(b1-4)GlcNAc(b1-2)Man(a1-3)[Fuc(a1-2)Gal(b1-4)GlcNAc(b1-2)Man(a1-6)]Man(b1-4)GlcNAc(b1-4)[Fuc(a1-6)]GlcNAc
Outline: as §1

[26] = target: Fuc(a1-2)Gal(b1-4)GlcNAc(b1-2)[Fuc(a1-2)Gal(b1-4)GlcNAc(b1-4)]Man(a1-3)[Fuc(a1-2)Gal(b1-4)GlcNAc(b1-2)Man(a1-6)]Man(b1-4)GlcNAc(b1-4)GlcNAc
Outline: as §1

[27] = target: Fuc(a1-2)Gal(b1-4)GlcNAc(b1-3)Gal(b1-4)GlcNAc
Outline: as §1

[28] = target: Fuc(a1-2)Gal(b1-4)GlcNAc(b1-3)Gal(b1-4)GlcNAc(b1-2)Man(a1-3)[Fuc(a1-2)Gal(b1-4)GlcNAc(b1-3)Gal(b1-4)GlcNAc(b1-2)Man(a1-6)]Man(b1-4)GlcNAc(b1-4)GlcNAc
Outline: as §1

[29] = target: Fuc(a1-2)Gal(b1-4)GlcNAc(b1-3)Gal(b1-4)GlcNAc(b1-3)Gal(b1-4)GlcNAc
Outline: as §1

[30] = target: Fuc(a1-2)Gal(b1-4)GlcNAc(b1-3)GalNAc
Outline: as §1

[31] = target: Fuc(a1-2)Gal(b1-4)GlcNAc(b1-3)[Fuc(a1-2)Gal(b1-4)GlcNAc(b1-6)]GalNAc
Outline: as §1

[32] = target: Fuc(a1-2)Gal(b1-4)GlcNAc(b1-3)[Fuc(a1-3)[Gal(b1-4)]GlcNAc(b1-6)]Gal(b1-4)Glc
Outline: as §1

[33] = target: Fuc(a1-2)Gal(b1-4)GlcNAc(b1-6)GalNAc
Outline: as §1

[34] = target: Fuc(a1-2)Gal(b1-4)GlcNAc6S
Outline: as §1

[35] = target: Fuc(a1-2)Gal(b1-4)[Fuc(a1-3)]GlcNAc
Outline: as §1

[36] = target: Fuc(a1-2)Gal(b1-4)[Fuc(a1-3)]GlcNAc(b1-2)Man(a1-3)[Fuc(a1-2)Gal(b1-4)[Fuc(a1-3)]GlcNAc(b1-2)Man(a1-6)]Man(b1-4)GlcNAc(b1-4)GlcNAc
Outline: as §1

[37] = target: Fuc(a1-2)Gal(b1-4)[Fuc(a1-3)]GlcNAc(b1-2)Man(a1-3)[Fuc(a1-2)Gal(b1-4)[Fuc(a1-3)]GlcNAc(b1-2)Man(a1-6)]Man(b1-4)GlcNAc(b1-4)[Fuc(a1-6)]GlcNAc
Outline: as §1

[38] = target: Fuc(a1-2)Gal(b1-4)[Fuc(a1-3)]GlcNAc(b1-2)Man(a1-6)[Fuc(a1-2)Gal(b1-4)[Fuc(a1-3)]GlcNAc(b1-2)Man(a1-3)]Man(b1-4)GlcNAc(b1-4)[Fuc(a1-6)]GlcNAc
Outline: as §1

[39] = target: Fuc(a1-2)Gal(b1-4)[Fuc(a1-3)]GlcNAc(b1-2)[Fuc(a1-2)Gal(b1-4)[Fuc(a1-3)]GlcNAc(b1-4)]Man(a1-3)[Fuc(a1-2)Gal(b1-4)[Fuc(a1-3)]GlcNAc(b1-2)Man(a1-6)]Man(b1-4)GlcNAc(b1-4)GlcNAc
Outline: as §1

B1: LlpA1 (Pseudomonas fluorescens), Q4KHC3 (protein)
chain: MGSSHHHHHHSSGLVPRGSHMAWIRYDFTDNGSSVLPARYYMAPNQYLQSPNKRFKLLFQADGNLALYDGAQLAWVADQNTPFTNVSKGNKKDPMMVFMNYGFVLDDPLRGRIWSTTPSDPTMGSREDASLRAFTQVQDDGNIVTVDTIPHWYAPNGRVFTPAVGAAMIIGGTTELVPGQFYSAGEHSLVFQGDGNLVVYGPNSSVIWATYTQNKGGVRCVMQEDGNLVIYAANNGVVWQSGTGGHPGATIRLQANGSFTIVTERPVWARFGYTPTIKPPRVFYPDHKWKTGSYTWNNVF
glycan array binding signal (z-score) (Fuc(a1-2)Gal): -0.373 | glycan array binding signal (z-score) (Fuc(a1-2)Gal(b1-3)GalNAc): -0.757 | glycan array binding signal (z-score) [1]: -0.573 | glycan array binding signal (z-score) [2]: 0.017 | glycan array binding signal (z-score) [3]: -0.517 | glycan array binding signal (z-score) [4]: -0.383 | glycan array binding signal (z-score) [5]: -0.274 | glycan array binding signal (z-score) (Fuc(a1-2)Gal(b1-3)GlcNAc): 0.181 | glycan array binding signal (z-score) [6]: 3.75 | glycan array binding signal (z-score) [7]: -0.133 | glycan array binding signal (z-score) [8]: -0.433 | glycan array binding signal (z-score) [9]: -0.31 | glycan array binding signal (z-score) [10]: 0.443 | glycan array binding signal (z-score) [11]: 0.406 | glycan array binding signal (z-score) [12]: 0.281 | glycan array binding signal (z-score) [13]: -0.394 | glycan array binding signal (z-score) [14]: 0.124 | glycan array binding signal (z-score) [15]: -0.494 | glycan array binding signal (z-score) [16]: 0.043 | glycan array binding signal (z-score) [17]: 3.21 | glycan array binding signal (z-score) [18]: 0.541 | glycan array binding signal (z-score) [19]: 0.331 | glycan array binding signal (z-score) [20]: -0.146 | glycan array binding signal (z-score) [21]: 0.091 | glycan array binding signal (z-score) [22]: 3.1 | glycan array binding signal (z-score) (Fuc(a1-2)Gal(b1-4)Glc): -0.283 | glycan array binding signal (z-score) (Fuc(a1-2)Gal(b1-4)Glc6S): 0.047 | glycan array binding signal (z-score) (Fuc(a1-2)Gal(b1-4)GlcNAc): -0.501 | glycan array binding signal (z-score) [23]: -0.795 | glycan array binding signal (z-score) [24]: 0.8 | glycan array binding signal (z-score) [25]: 0.466 | glycan array binding signal (z-score) [26]: 0.461 | glycan array binding signal (z-score) [27]: -0.073 | glycan array binding signal (z-score) [28]: 0.02 | glycan array binding signal (z-score) [29]: -0.012 | glycan array binding signal (z-score) [30]: -0.734 | glycan array binding signal (z-score) [31]: -0.395 | glycan array binding signal (z-score) [32]: -0.454 | glycan array binding signal (z-score) [33]: 0.386 | glycan array binding signal (z-score) [34]: -0.574 | glycan array binding signal (z-score) [35]: -0.526 | glycan array binding signal (z-score) [36]: 1.11 | glycan array binding signal (z-score) [37]: -0.257 | glycan array binding signal (z-score) [38]: -0.542 | glycan array binding signal (z-score) [39]: -0.042
